Data published in paper PMC7898604.
These are yes or no findings as the source states them, for the method shown. Binding seen in cells or lysates may run through a third protein. Some results given as binding are weak or reduced against the parent protein; the word gives no strength. Tags and fused reporters may be left off the sequences shown.

By UniProt entry, the sequences of proteins in these tests, tags left out.
UniProt Q12329: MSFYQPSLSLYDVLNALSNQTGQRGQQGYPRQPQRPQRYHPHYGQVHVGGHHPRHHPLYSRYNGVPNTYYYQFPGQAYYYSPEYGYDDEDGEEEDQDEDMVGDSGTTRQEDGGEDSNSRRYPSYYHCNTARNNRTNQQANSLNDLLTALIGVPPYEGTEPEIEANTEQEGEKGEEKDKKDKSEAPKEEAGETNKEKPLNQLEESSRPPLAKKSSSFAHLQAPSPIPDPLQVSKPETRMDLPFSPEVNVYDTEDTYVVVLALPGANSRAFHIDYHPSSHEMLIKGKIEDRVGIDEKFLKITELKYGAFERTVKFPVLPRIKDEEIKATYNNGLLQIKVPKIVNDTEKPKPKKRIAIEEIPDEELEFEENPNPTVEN

B1: FLAG-tagged Oac1 (protein, UniProt P32332 1-324)
chain: MSSDNSKQDKQIEKTAAQKISKFGSFVAGGLAACIAVTVTNPIELIKIRMQLQGEMSASAAKVYKNPIQGMAVIFKNEGIKGLQKGLNAAYIYQIGLNGSRLGFYEPIRSSLNQLFFPDQEPHKVQSVGVNVFSGAASGIIGAVIGSPLFLVKTRLQSYSEFIKIGEQTHYTGVWNGLVTIFKTEGVKGLFRGIDAAILRTGAGSSVQLPIYNTAKNILVKNDLMKDGPALHLTASTISGLGVAVVMNPWDVILTRIYNQKGDLYKGPIDCLVKTVRIEGVTALYKGFAAQVFRIAPHTIMCLTFMEQTMKLVYSIESRVLGHN
B2: Get3 with a FLAG tag (prey of the Oac1-GFP immunoprecipitation, Fig S5C) (protein, UniProt Q12154 1-354)
chain: MDLTVEPNLHSLITSTTHKWIFVGGKGGVGKTTSSCSIAIQMALSQPNKQFLLISTDPAHNLSDAFGEKFGKDARKVTGMNNLSCMEIDPSAALKDMNDMAVSRANNNGSDGQGDDLGSLLQGGALADLTGSIPGIDEALSFMEVMKHIKRQEQGEGETFDTVIFDTAPTGHTLRFLQLPNTLSKLLEKFGEITNKLGPMLNSFMGAGNVDISGKLNELKANVETIRQQFTDPDLTTFVCVCISEFLSLYETERLIQELISYDMDVNSIIVNQLLFAENDQEHNCKRCQARWKMQKKYLDQIDELYEDFHVVKMPLCAGEIRGLNNLTKFSQFLNKEYNPITDGKVIYELEDKE

Tests used:
[1] = biological target: T1, GFP-tagged Get3 (S. cerevisiae) (UniProt Q12154); experiment: co-IP; yeast lysate, mouse anti-GFP antibody at 4°C overnight, Dynabeads Protein G; KHM IP Buffer (110 mM KAc, 20 mM HEPES-KOH pH 7.4, 2 mM MgCl2, 10% glycerol, 0.1% Triton-X100); blot for GFP and FLAG
T1 sequence: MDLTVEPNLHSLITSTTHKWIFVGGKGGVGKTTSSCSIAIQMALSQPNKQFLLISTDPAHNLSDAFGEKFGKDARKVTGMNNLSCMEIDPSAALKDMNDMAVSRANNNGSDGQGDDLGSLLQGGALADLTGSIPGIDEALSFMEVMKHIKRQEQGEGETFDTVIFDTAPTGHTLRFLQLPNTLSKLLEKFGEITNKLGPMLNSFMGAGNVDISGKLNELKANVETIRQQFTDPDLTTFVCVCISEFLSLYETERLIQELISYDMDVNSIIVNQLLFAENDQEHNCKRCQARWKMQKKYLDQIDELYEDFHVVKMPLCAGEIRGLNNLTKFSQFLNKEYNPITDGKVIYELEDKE

[2] = biological target: GFP-tagged Hsp42 (S. cerevisiae) (UniProt Q12329); experiment: co-IP; yeast lysate, mouse anti-GFP antibody at 4°C overnight, Dynabeads Protein G; Tris IP Buffer (50 mM Tris pH 7.5, 150 mM NaCl, 1 mM EDTA, 10% glycerol, 1% IGEPAL); blot for GFP and FLAG
Oac1-GFP (S. cerevisiae) = biological target: T2, Oac1-GFP (S. cerevisiae) (UniProt P32332); experiment: co-IP; yeast lysate, mouse anti-GFP antibody at 4°C overnight, Dynabeads Protein G; KHM IP Buffer (110 mM KAc, 20 mM HEPES-KOH pH 7.4, 2 mM MgCl2, 10% glycerol, 0.1% Triton-X100); blot for GFP and FLAG
T2 sequence: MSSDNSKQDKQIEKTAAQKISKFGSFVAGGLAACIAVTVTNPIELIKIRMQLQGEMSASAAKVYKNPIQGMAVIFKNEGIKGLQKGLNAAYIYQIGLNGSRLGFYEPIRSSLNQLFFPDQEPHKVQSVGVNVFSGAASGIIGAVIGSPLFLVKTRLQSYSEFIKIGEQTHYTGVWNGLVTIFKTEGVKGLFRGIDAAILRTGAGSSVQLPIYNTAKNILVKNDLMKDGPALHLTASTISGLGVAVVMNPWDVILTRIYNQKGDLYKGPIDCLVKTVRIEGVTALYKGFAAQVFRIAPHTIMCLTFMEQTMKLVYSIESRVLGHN

Binder | binding [1] | binding [2] | binding (Oac1-GFP (S. cerevisiae))
B1 | binds | binds | 
B2 |  |  | binds
